These results are taken from PMC3363207.

These are yes or no findings as the source states them, for the method shown. For part of these data: In cells and extracts the contact can be indirect. Some results given as binding are weak or reduced against the parent protein; the word gives no strength.

The target in experiment [1] is T1, β1 subunit of soluble guanylyl cyclase (sGC) (UniProt Q02153).
T1 sequence: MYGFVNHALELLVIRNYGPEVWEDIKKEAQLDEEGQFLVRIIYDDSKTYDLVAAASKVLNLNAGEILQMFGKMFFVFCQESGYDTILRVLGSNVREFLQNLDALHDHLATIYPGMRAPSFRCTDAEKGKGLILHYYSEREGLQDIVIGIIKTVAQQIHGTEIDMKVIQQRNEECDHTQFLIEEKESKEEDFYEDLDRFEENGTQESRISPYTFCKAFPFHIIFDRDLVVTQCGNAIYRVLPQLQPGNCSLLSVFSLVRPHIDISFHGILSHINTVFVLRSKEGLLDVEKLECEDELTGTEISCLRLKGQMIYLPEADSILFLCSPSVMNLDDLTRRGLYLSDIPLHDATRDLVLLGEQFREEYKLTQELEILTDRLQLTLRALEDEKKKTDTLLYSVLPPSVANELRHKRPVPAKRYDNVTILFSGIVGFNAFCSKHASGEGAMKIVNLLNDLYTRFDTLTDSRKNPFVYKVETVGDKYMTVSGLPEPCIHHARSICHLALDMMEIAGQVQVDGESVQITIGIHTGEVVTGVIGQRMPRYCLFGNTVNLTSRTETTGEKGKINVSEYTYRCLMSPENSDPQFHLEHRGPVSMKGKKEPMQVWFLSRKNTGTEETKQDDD
Description: two-hybrid; yeast two-hybrid screening; LGN identified as a hit with sGC subunits.

Experiment [2] concerns the target T2, α1 subunit of soluble guanylyl cyclase (sGC) (UniProt Q02108).
T2 sequence: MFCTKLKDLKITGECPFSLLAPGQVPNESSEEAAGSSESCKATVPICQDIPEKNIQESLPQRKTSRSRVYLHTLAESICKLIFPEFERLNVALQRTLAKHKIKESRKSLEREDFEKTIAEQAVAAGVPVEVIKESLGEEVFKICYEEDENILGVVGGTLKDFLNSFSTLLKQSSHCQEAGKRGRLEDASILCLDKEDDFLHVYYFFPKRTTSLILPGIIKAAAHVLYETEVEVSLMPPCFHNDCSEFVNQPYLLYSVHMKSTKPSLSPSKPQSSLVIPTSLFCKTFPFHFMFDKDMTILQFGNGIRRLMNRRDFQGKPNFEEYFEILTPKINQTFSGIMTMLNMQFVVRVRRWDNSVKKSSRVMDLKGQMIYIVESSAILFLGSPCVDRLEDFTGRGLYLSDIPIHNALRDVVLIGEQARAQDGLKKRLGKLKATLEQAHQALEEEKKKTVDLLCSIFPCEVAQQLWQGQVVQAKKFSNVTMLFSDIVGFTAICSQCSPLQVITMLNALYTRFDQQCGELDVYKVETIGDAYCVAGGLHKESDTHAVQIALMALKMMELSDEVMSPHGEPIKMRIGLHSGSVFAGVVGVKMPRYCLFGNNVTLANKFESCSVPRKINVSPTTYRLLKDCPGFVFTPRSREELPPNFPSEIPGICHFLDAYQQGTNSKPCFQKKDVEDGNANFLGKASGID
Described as above.

Experiment [3] has as its target T3, soluble guanylyl cyclase (sGC) (in the lysate of BE2 human neuroblastoma cells) (human (endogenous in BE2)) (UniProt Q02108+Q02153).
T3 sequence 1: T2 sequence
T3 sequence 2: T1 sequence
Briefly: co-IP; co-immunoprecipitation from the lysate of BE2 human neuroblastoma cell line.

B1: LGN, a Leu-Gly-Asn repeat enriched protein (protein, UniProt P81274 1-684)
chain: MEENLISMREDHSFHVRYRMEASCLELALEGERLCKSGDCRAGVSFFEAAVQVGTEDLKTLSAIYSQLGNAYFYLHDYAKALEYHHHDLTLARTIGDQLGEAKASGNLGNTLKVLGNFDEAIVCCQRHLDISRELNDKVGEARALYNLGNVYHAKGKSFGCPGPQDVGEFPEEVRDALQAAVDFYEENLSLVTALGDRAAQGRAFGNLGNTHYLLGNFRDAVIAHEQRLLIAKEFGDKAAERRAYSNLGNAYIFLGEFETASEYYKKTLLLARQLKDRAVEAQSCYSLGNTYTLLQDYEKAIDYHLKHLAIAQELNDRIGEGRACWSLGNAYTALGNHDQAMHFAEKHLEISREVGDKSGELTARLNLSDLQMVLGLSYSTNNSIMSENTEIDSSLNGVRPKLGRRHSMENMELMKLTPEKVQNWNSEILAKQKPLIAKPSAKLLFVNRLKGKKYKTNSSTKVLQDASNSIDHRIPNSQRKISADTIGDEGFFDLLSRFQSNRMDDQRCCLQEKNCHTASTTTSSTPPKMMLKTSSVPVVSPNTDEFLDLLASSQSRRLDDQRASFSNLPGLRLTQNSQSVLSHLMTNDNKEADEDFFDILVKCQGSRLDDQRCAPPPATTKGPTVPDEDFFSLILRSQGKRMDEQRVLLQRDQNRDTDFGLKDFLQNNALLEFKNSGKKSADH
For B1, the binding entry in experiment [1] and in experiment [2] was “binds” each time.

B2: LGN (in the lysate of BE2 human neuroblastoma cells) (protein, UniProt P81274 1-684)
chain: B1 chain
Consider B2, for which the binding result in experiment [3] was “binds”.
